Source: PMC11079228
These are yes or no findings as the source states them, for the method shown. In cells and extracts the contact can be indirect. A yes stands for co-enrichment or nearness to the bait. Other partners may have been found.

Target: Huntingtin-interacting protein 1 (rat) (rat (endogenous in rat FLS))
Experiment: affinity purification with mass spectrometry; rabbit anti-rat-HIP1 antibody (20 μg per sample) on Dynabeads M-270 Epoxy; total lysates of rat FLS (one DA and one R6 cell line, each in triplicate), starved 24 h, then PDGFβ 100 ng/mL 30 min; lysis in water with protease and phosphatase inhibitors by three freeze-thaw cycles; elution with 8 M urea, LysC and trypsin, nano-LC-MS/MS, label-free quantitation

Binder	binding
HPRT1 (protein, UniProt P27605 1-218) MSTLSPSVVISDDEPGYDLDLFCIPNHYAEDLEKVFIPHGLIMDRTERLARDVMKEMGGHHIVALCVLKGGYKFFADLLDYIKALNRNSDRSIPMTVDFIRLKSYCNDQSTGDIKVIGGDDLSTLTGKNVLIVEDIIDTGKTMQTLLSLVKQYSPKMVKVASLLVKRTSRSVGYRPDFVGFEIPDKFVVGYALDYNEHFRDLNHVCVISESGKAKYKA	binds
PSMF1 (protein, UniProt Q5XIU5 1-271) MAGLEVLFASAAPAMTCPQDALVCFLHWEVVTNGYYGLGTGDQPDPNDKKSELLPAEWNSNKELYALRYESKDGARKLLLKAVSVENGMIINVLEHGTQQVADLTLNLDDYIDAEDLSDFHRTYKNSEELRSRIRSGIITPIHEQWEKVRLSSPPREFPPATAREVDPLRISSHHPHTSRQPTWRDPLSPFAVGGEDLDPFGCQRGGMIVDPLRSGFPRALIDPSSGLPNRLPPGAVPPGARFDPFGPIGTSPSGPNPDHLPPPGYDDMYL	binds
HNRNPM (protein, UniProt Q62826 1-690) MAAGVEAAAEVAATEPKMEEESGAPCVPSGNGAPVPKGEERPTQNEKRKEKNIKRGGNRFEPYANPTKRYRAFITNIPFDVKWQSLKDLVKEKVGEVTYVELLMDAEGKSRGCAVVEFKMEESMKKAAEVLNKHSLSGRPLKVKEDPDGEHARRAMQKAGRLGSTVFVANLDYKVGWKKLKEVFSMAGVVVRADILEDKDGKSRGIGTVTFEQSIEAVQAISMFNGQLLFDRPMHVKMDERALPKGDFFPPERPQQLPHGLGGIGMGLGPGGQPIDANHLNKGIGMGNLGPAGMGMEGIGFGINKIGGMEGPFGGGMENMGRFGSGMNMGRINEILSNALKRGEIIAKQGGSGAGGSVPGIERMGPGIDRISGAGMERMGAGLGHGMDRVGSEIERMGLVMDRMGSVERMGSGIERMGPLGLDHMASSIERMGQTMERIGSGVERMGAGMGFGLERMAAPIDRVGQTIERMGSGVERMGPAIERMGLSMDRMVPTGMGAGLERMGPVMDRMATGLERMGANNLERMGLERMGANSLERMGLERMGANSLERMGPAMGPALGAGIERMGLAMGGAGGASFDRTIEMERGNFGGSFAGSFGGAGGHAPGVARKACQIFVRNLPFDFTWKMLKDKFNECGHVLYADIKMENGKSKGCGVVKFESPEVAERACRMMNGMKLSGREIDVRIDRNA	binds
LGMN (protein, UniProt Q9R0J8 18-325) VHIGVDDPEDGGKHWVVIVAGSNGWYNYRHQADACHAYQIIHRNGIPDEQIIVMMYDDIANNEENPTPGVVINRPNGTDVYKGVPKDYTGEDVTPENFLAVLRGDEEAVKGKGSGKVLKSGPRDHVFVYFTDHGATGILVFPNEDLHVKDLNKTIRYMYEHKMYQKMVFYIEACESGSMMNHLPDDIDVYATTAANPNESSYACYYDEERSTYLGDWYSVNWMEDSDVEDLTKETLHKQYHLVKSHTNTSHVMQYGNKSISTMKVMQFQGMKHRASSPISLPPVTHLDLTPSPDVPLTILKRKLLRTN	binds
SH3GLB1 (protein, UniProt Q6AYE2 1-365) MNIMDFNVKKLAADAGTFLSRAVQFTEEKLGQAEKTELDAHLENLLSKAECTKVWTEKIMKQTEVLLQPNPNARIEEFVYEKLDRKAPSRINNPELLGQYMIDAGTEFGPGTAYGNALIKCGETQKRIGTADRELIQTSALNFLTPLRNFIEGDYKTIAKERKLLQNKRLDLDAAKTRLKKAKAAETKSSSEQELRITQSEFDRQAEITRLLLEGISSTHAHHLRCLNDFVEAQMTYYAQCYQYMLDLQKQLGSFPSNYVSNNNQTSGTPVPYTLSNTIGPSAVASTGSLVITCPPNLSDLKDSSSTRKARVLYDYDAANSTELSLLADEVITVFSVVGMDSDWLMGERGNQKGKVPITYLELLN	binds
